The reference is the same well before dosing, and untreated signal decays as well.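 The tumor cells are basal-like or mesenchymal-like triple-negative breast cancer lines cultured without fibroblasts. Reduced red signal indicates lost mitochondrial integrity, serving as a proxy for apoptotic death.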
Key:
Test in all cases: relative JC-1 red fluorescence (viability) vs pre-drug, monoculture (fraction); higher = more viable cancer cells
Settings in all cases: coculture fibroblast: none (monoculture)
Hs578T = system: Hs578T
Procedure: (§1)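 JC-1 labelled TNBC cells grown in monoculture (density kept equal with unlabelled cancer cells) in 384-well plates in FluoroBrite medium, treated with one of 42 anticancer drugs at 0.1, 1, 10 or 100 uM. JC-1 red fluorescence (mitochondrial integrity, surrogate of apoptotic death) was read by plate reader every 8 h for 72 h. Values are normalised to each well's pre-drug value, with background from alamethicin. The stock of one drug was tenfold lower, so its dose labels may be too high. Monoculture values are repeated alongside each fibroblast plate and are averaged here.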

MDAMB231 = system: MDAMB231
Procedure: as §1

BT20 = system: BT20
Procedure: as §1

MDAMB468 = system: MDAMB468
Procedure: as §1

COc1cc([C@@H]2c3cc4c(cc3[C@@H](O[C@@H]3O[C@@H]5CO[C@@H](C)O[C@H]5[C@H](O)[C@H]3O)[C@H]3COC(=O)[C@H]23)OCO4)cc(OC)c1O [Etoposide]
relative JC-1 red fluorescence
Settings | 8 h | 16 h | 24 h | 32 h | 40 h | 48 h | 56 h | 64 h | 72 h
BT20, 0.1 µM | 0.932 | 0.845 | 0.792 | 0.721 | 0.687 | 0.674 | 0.65 | 0.646 | 0.646
BT20, 1 µM | 0.903 | 0.801 | 0.775 | 0.692 | 0.644 | 0.624 | 0.6 | 0.599 | 0.59
BT20, 10 µM | 0.909 | 0.821 | 0.734 | 0.6245 | 0.5373 | 0.491 | 0.458 | 0.442 | 0.437
BT20, 100 µM | 0.9133 | 0.854 | 0.787 | 0.6868 | 0.651 | 0.6272 | 0.6084 | 0.599 | 0.6065
Hs578T, 0.1 µM | 0.83 | 0.817 | 0.696 | 0.663 | 0.722 | 0.695 | 0.699 | 0.637 | 0.631
Hs578T, 1 µM | 0.7919 | 0.673 | 0.638 | 0.561 | 0.514 | 0.499 | 0.488 | 0.493 | 0.496
Hs578T, 10 µM | 0.819 | 0.728 | 0.745 | 0.666 | 0.644 | 0.616 | 0.628 | 0.577 | 0.608
Hs578T, 100 µM | 0.84875 | 0.763 | 0.753 | 0.691 | 0.652 | 0.632 | 0.611 | 0.612 | 0.604
MDAMB231, 0.1 µM | 0.805 | 0.807 | 0.775 | 0.764 | 0.686 | 0.767 | 0.737 | 0.75 | 0.764
MDAMB231, 1 µM | 0.729 | 0.687 | 0.698 | 0.627 | 0.591 | 0.583 | 0.567 | 0.595 | 0.599
MDAMB231, 10 µM | 0.794 | 0.728 | 0.787 | 0.697 | 0.668 | 0.676 | 0.659 | 0.714 | 0.724
MDAMB231, 100 µM | 0.714 | 0.696 | 0.702 | 0.656 | 0.639 | 0.633 | 0.624 | 0.669 | 0.68
MDAMB468, 0.1 µM | 0.921 | 0.806 | 0.7335 | 0.664 | 0.621 | 0.625 | 0.598 | 0.588 | 0.585
MDAMB468, 1 µM | 0.868 | 0.784 | 0.748 | 0.689 | 0.652 | 0.65 | 0.634 | 0.622 | 0.624
MDAMB468, 10 µM | 0.9 | 0.805 | 0.791 | 0.751 | 0.723 | 0.719 | 0.697 | 0.69 | 0.681
MDAMB468, 100 µM | 0.887 | 0.817 | 0.799 | 0.733 | 0.701 | 0.708 | 0.683 | 0.672 | 0.678

CCN(CC)CCNC(=O)c1c(C)[nH]c(/C=C2\C(=O)Nc3ccc(F)cc32)c1C [Sunitinib]
relative JC-1 red fluorescence
Settings | 8 h | 16 h | 24 h | 32 h | 40 h | 48 h | 56 h | 64 h | 72 h
BT20, 0.1 µM | 0.905 | 0.8228 | 0.797 | 0.731 | 0.691 | 0.676 | 0.662 | 0.661 | 0.654
BT20, 1 µM | 0.939 | 0.859 | 0.838 | 0.774 | 0.74 | 0.725 | 0.688 | 0.684 | 0.664
BT20, 10 µM | 0.953 | 0.943 | 0.809 | 0.649 | 0.525 | 0.464 | 0.387 | 0.36 | 0.313
BT20, 100 µM | 0.311 | 0.185 | 0.2 | 0.149 | 0.123 | 0.126 | 0.098 | 0.0911 | 0.0836
Hs578T, 0.1 µM | 0.87 | 0.744 | 0.667 | 0.602 | 0.537 | 0.497 | 0.461 | 0.448 | 0.432
Hs578T, 1 µM | 0.8145 | 0.6886 | 0.656 | 0.6056 | 0.5804 | 0.554 | 0.5332 | 0.52 | 0.508
Hs578T, 10 µM | 0.48 | 0.285 | 0.248 | 0.163 | 0.131 | 0.114 | 0.0953 | 0.0887 | 0.0748
Hs578T, 100 µM | 0.439 | 0.3 | 0.31 | 0.269 | 0.25 | 0.261 | 0.248 | 0.245 | 0.238
MDAMB231, 0.1 µM | 0.686 | 0.652 | 0.656 | 0.603 | 0.566 | 0.551 | 0.537 | 0.557 | 0.56
MDAMB231, 1 µM | 0.736 | 0.713 | 0.605 | 0.631 | 0.592 | 0.561 | 0.526 | 0.531 | 0.51
MDAMB231, 10 µM | 0.764 | 0.819 | 0.5739 | 0.631 | 0.538 | 0.452 | 0.371 | 0.312 | 0.248
MDAMB231, 100 µM | 0.454 | 0.336 | 0.314 | 0.333 | 0.323 | 0.368 | 0.369 | 0.395 | 0.418
MDAMB468, 0.1 µM | 0.872 | 0.766 | 0.745 | 0.689 | 0.649 | 0.6395 | 0.6078 | 0.594 | 0.591
MDAMB468, 1 µM | 0.885 | 0.799 | 0.749 | 0.682 | 0.632 | 0.605 | 0.568 | 0.533 | 0.515
MDAMB468, 10 µM | 0.712 | 0.366 | 0.258 | 0.194 | 0.158 | 0.144 | 0.119 | 0.103 | 0.0884
MDAMB468, 100 µM | 0.439 | 0.278 | 0.305 | 0.252 | 0.259 | 0.275 | 0.266 | 0.257 | 0.278

Nc1ccn([C@@H]2O[C@H](CO)[C@@H](O)C2(F)F)c(=O)n1 [Gemcitabine]
relative JC-1 red fluorescence
Settings | 8 h | 16 h | 24 h | 32 h | 40 h | 48 h | 56 h | 64 h | 72 h
BT20, 0.1 µM | 0.952 | 0.879 | 0.797 | 0.742 | 0.718 | 0.686 | 0.671 | 0.643 | 0.642
BT20, 1 µM | 0.9233 | 0.862 | 0.808 | 0.746 | 0.727 | 0.719 | 0.703 | 0.696 | 0.7
BT20, 10 µM | 0.951 | 0.867 | 0.75 | 0.665 | 0.632 | 0.607 | 0.581 | 0.559 | 0.549
BT20, 100 µM | 0.93611 | 0.873 | 0.7785 | 0.72 | 0.681 | 0.662 | 0.624 | 0.599 | 0.582
Hs578T, 0.1 µM | 0.8463 | 0.739 | 0.629 | 0.546 | 0.484 | 0.442 | 0.393 | 0.379 | 0.365
Hs578T, 1 µM | 0.8293 | 0.7103 | 0.705 | 0.639 | 0.598 | 0.579 | 0.559 | 0.571 | 0.568
Hs578T, 10 µM | 0.8254 | 0.743 | 0.657 | 0.603 | 0.546 | 0.511 | 0.47 | 0.45 | 0.4335
Hs578T, 100 µM | 0.831 | 0.707 | 0.688 | 0.624 | 0.575 | 0.56 | 0.54 | 0.545 | 0.54
MDAMB231, 0.1 µM | 0.726 | 0.661 | 0.568 | 0.554 | 0.508 | 0.501 | 0.471 | 0.486 | 0.493
MDAMB231, 1 µM | 0.7083 | 0.66244 | 0.6056 | 0.576 | 0.538 | 0.523 | 0.485 | 0.507 | 0.5113
MDAMB231, 10 µM | 0.7477 | 0.6932 | 0.64 | 0.621 | 0.595 | 0.596 | 0.551 | 0.595 | 0.606
MDAMB231, 100 µM | 0.712 | 0.668 | 0.6 | 0.568 | 0.524 | 0.52 | 0.498 | 0.531 | 0.551
MDAMB468, 0.1 µM | 0.8877 | 0.847 | 0.782 | 0.694 | 0.64 | 0.609 | 0.567 | 0.538 | 0.524
MDAMB468, 1 µM | 0.883 | 0.799 | 0.74 | 0.634 | 0.587 | 0.556 | 0.507 | 0.473 | 0.464
MDAMB468, 10 µM | 0.8815 | 0.7847 | 0.691 | 0.612 | 0.566 | 0.531 | 0.49 | 0.449 | 0.445
MDAMB468, 100 µM | 0.899 | 0.806 | 0.768 | 0.6736 | 0.6382 | 0.603 | 0.5625 | 0.528 | 0.515

— the supplement of paper PMC6078165
